Assay results published in PubChem BioAssay AID504465 (National Center for Advancing Translational Sciences (NCATS), 2011).
Screen size: about 2,100 compounds; about 210 (10%) were called active. The shares of active, inactive and inconclusive entries below differ from those in the screen. The call rests on the fitted dose curve; in most records, active means well fitted inhibition curve with a large enough effect; inconclusive means small, poorly fitted or top-dose-only effect, or effect the other way; inactive means no such curve, though single readings can be large or run the other way. Potencies of inconclusive entries are doubtful fits and often do not repeat.

experiment: IN Cell qHTS Assay for Inhibitors of the mTORC1 Signaling Pathway in MEF (Tsc2-/-, p53-/-) Cells: Sytravon; settings: phospho-rpS6 immunofluorescence, 24 h; series mostly up to 38.3 µM; further: nearly all actives have a fitted effect of over 60% in size
Method in brief: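 Tsc2-/-, p53-/- MEFs (empty-vector) treated with compound 24 h at 37 degree Celsius, then fixed and stained for phospho-rpS6 Ser235/236 (Alexa-488) plus Hoechst. Reported as % positive cells, thresholds set against 7.5 nM rapamycin and DMSO wells.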
Potency means the concentration at half of the fitted maximal effect.

Row | Compound | Potency
1 | Cc1cc(N2CCCCC2)nc2ccc(NC(=O)/C=C/c3ccccc3OC(C)C)cc12 | inconclusive: 1.85 µM [falling, partial curve, poor fit]
2 | COc1ccc(NC(=O)CSCc2cnn(-c3ccccc3)c2-n2cccc2)cc1 | inactive
3 | NS(=O)(=O)c1ccc(NC(=O)c2ccc3c(c2)CCN3S(=O)(=O)c2ccccc2)cc1 | inconclusive: 26.1 µM [falling, single point]
4 | CCOc1ccc(NC(=O)Cn2ccn(-c3ccc(F)c(F)c3)c(=O)c2=O)cc1 | inactive
5 | Cc1ccc(N2C(=O)c3[nH]nc(-c4ccc(Cl)cc4)c3C2c2ccc(F)cc2)cc1 (stereo not drawn) | inconclusive: 0.0037 µM [activator, full curve, poor fit]
6 | O=C(Cn1cc(SCc2ccc(C(F)(F)F)cc2)c2ccccc21)N1CCCC1 | inconclusive: 11.7 µM [falling, partial curve]
7 | CC1CCN(S(=O)(=O)c2ccc(C(=O)Nc3sc4c(c3C(N)=O)CC(C)(C)NC4(C)C)cc2)CC1 | inconclusive: 16.5 µM [falling, partial curve]
8 | COc1ccc(Cl)cc1NC(=O)CSc1nc(-c2ccco2)cc(C(F)(F)F)n1 | inconclusive: 1.31 µM [falling, partial curve, poor fit]
9 | CCOC(=O)c1ccc(N2C(=O)c3n[nH]c(-c4ccco4)c3C2c2ccc(O)c(OC)c2)cc1 (stereo not drawn) | inconclusive: 4.14 µM [falling, partial curve, poor fit]
10 | O=C1c2[nH]nc(-c3ccc(Br)cc3)c2C(c2cccc(O)c2)N1c1ccc(Cl)cc1 (stereo not drawn) | inconclusive: 26.1 µM [falling, single point]
11 | N=c1n(CCN2CCCCC2)c2ccccc2n1CC(O)COc1ccc(Cl)cc1Cl (stereo not drawn) | active: 2.61 µM
12 | CCN(CC)CCCNc1sc(S(=O)(=O)c2ccccc2)nc1S(=O)(=O)c1ccc(Cl)cc1 | inconclusive: 18.5 µM [falling, single point]
13 | COc1ccccc1N1CCN(CCCNC(=O)c2cnn(-c3cccc(Cl)c3)c2C2CCN(C(=O)OC(C)(C)C)CC2)CC1 | inconclusive: 26.1 µM [falling, partial curve, poor fit]
14 | Cc1cccc(N2CCN(C(=O)Cn3nc(Cc4cccnc4)c4ccccc4c3=O)CC2)c1C | inactive
15 | O=C(CCOc1ccccc1)N(Cc1cccnc1)c1nc2c(F)cccc2s1 | inconclusive: 18.5 µM [falling, single point]
16 | CCN1CCc2nc3sc(C(=O)c4ccc(F)cc4)c(N)c3cc2C1 | inconclusive: 26.1 µM [falling, single point]
17 | Cc1ccc(NC(=O)Cn2c(=O)n(CCC(=O)NCc3ccccc3Cl)c(=O)c3ccccc32)cc1 | inconclusive: 0.329 µM [falling, partial curve, poor fit]
18 | CC(=O)N1CCCC1c1nc2ccccc2n1Cc1ccccc1C (stereo not drawn) | inconclusive: 10.4 µM [falling, partial curve, poor fit]
19 | COc1ccc(-c2onc(C)c2C)cc1S(=O)(=O)NCC1CCN(Cc2cc(C)ccc2C)CC1 | inconclusive: 14.7 µM [falling, single point]
20 | CCn1c(=O)c2cc(C(=O)NCCCN3CCC(C)CC3)sc2c2ccccc21 | inconclusive: 26.1 µM [falling, single point]
21 | COc1ccc2nc(C)cc(Nc3ccc(Cl)c(Cl)c3)c2c1 | active: 13.1 µM

Row | Compound | Potency
22 | Cc1ccc(OCc2ccc(-c3nc(C#N)c(NCc4ccccc4Cl)o3)o2)cc1 | inconclusive: 16.5 µM [falling, single point]
23 | Cc1ccc2nc(-c3cccc(NC(=O)c4cccc5ccccc45)c3)oc2c1 | inconclusive: 5.85 µM [falling, partial curve, poor fit]
24 | CCn1c(CC2C(=O)N(C)c3ccc(Br)cc32)nc2ccccc2c1=O (stereo not drawn) | inconclusive: 4.14 µM [falling, full curve, poor fit]
25 | COc1cc(NS(=O)(=O)c2ccc(-c3cc(C)no3)cc2)cc(OC)c1 | inconclusive: 4.65 µM [falling, partial curve, poor fit]
26 | O=C(Cc1ccc(Cl)cc1)Nc1ccc2oc(-c3ccccc3F)nc2c1 | inconclusive: 13.1 µM [falling, partial curve, poor fit]
27 | CCCN(C(=O)c1cn(CC(C)C)c(=O)c2cc(OC)c(OC)cc12)c1cccc(C)c1 | inconclusive: 26.1 µM [falling, partial curve, poor fit]
28 | COc1ccc(OC)c2sc(N(CCCN(C)C)C(=O)c3ccco3)nc12 | active: 14.7 µM
29 | CCC(Cc1ccccc1)NC(=O)Cn1ncc2c3ccccc3n(Cc3ccc(F)cc3)c2c1=O (stereo not drawn) | inconclusive: 0.464 µM [falling, full curve, poor fit]
30 | COc1ccc(Cl)cc1NC(=O)CCCS(=O)(=O)c1nc(-c2ccc(OC)c(OC)c2)cc(C(F)(F)F)n1 | inconclusive: 0.0041 µM [falling, full curve, poor fit]
31 | Cc1ccc(-c2n[nH]c3c2C(c2cccs2)N(c2ccc(Cl)cc2)C3=O)cc1 (stereo not drawn) | inconclusive: 23.3 µM [falling, single point]
32 | COc1ccc(N2CCN(Cc3nc(-c4ccc(C)cc4)no3)CC2)cc1 | inactive
33 | Cc1ccc(C(=O)CC2(O)C(=O)N(Cc3ccccc3)c3ccc(Br)cc32)cc1 (stereo not drawn) | inconclusive: 10.4 µM [falling, partial curve, poor fit]
34 | COc1cccc(-c2nnc3sc(CN4CCCCC4)cn23)c1 | active: 14.7 µM
35 | O=C(CC(NCc1cccnc1)C(=O)O)Nc1ccc(O)cc1 (stereo not drawn) | inconclusive: 26.1 µM [falling, single point]
36 | CCc1ccccc1Nc1cc(C(=O)NCCCN(C)C2CCCCC2)c2ccccc2n1 | inconclusive: 0.826 µM [falling, full curve, poor fit]
37 | COc1ccc(-c2n[nH]c3c2C(c2ccc(O)cc2)N(c2ccc(Br)cc2)C3=O)cc1 (stereo not drawn) | active: 11.7 µM
38 | COc1ccc(NC(=O)c2c(C)oc3ccc(O)c(CN4CCC(C)CC4)c23)cc1 | inconclusive: 23.3 µM [falling, single point]
39 | O=C(COC(=O)c1cccc(NC(=O)c2ccc(Br)cc2)c1)c1ccc(Br)cc1 | inactive
40 | COc1ccc(C)cc1NC(=O)CSc1ccc(-c2ccccn2)nn1 | inconclusive: 5.21 µM [falling, full curve, poor fit]
41 | CCOc1ccc(Br)cc1CNCCSc1nnnn1-c1ccccc1 | inconclusive: 26.1 µM [falling, single point]
42 | Cc1oc2ccc(O)c(CN3CCCC3)c2c1C(=O)Nc1ccc(C(C)C)cc1 | inconclusive: 16.5 µM [falling, single point]

2 entries from above in a different format.

| Row | Compound | Potency |
| --- | --- | --- |
| 25 | COc1cc(NS(=O)(=O)c2ccc(-c3cc(C)no3)cc2)cc(OC)c1 | inconclusive: 4.65 µM [falling, partial curve, poor fit] |
| 38 | COc1ccc(NC(=O)c2c(C)oc3ccc(O)c(CN4CCC(C)CC4)c23)cc1 | inconclusive: 23.3 µM [falling, single point] |

Later entries

Row | Compound | Potency
43 | Cc1cc(N2CCN(C)CC2)nc2ccc(NC(=O)Nc3cccc(Cl)c3)cc12 | inconclusive: 4.65 µM [falling, full curve, poor fit]
44 | COc1ccc(NC(=O)c2c(C)oc3ccc(O)c(CN4CCN(Cc5ccccc5)CC4)c23)cc1Cl | inactive
45 | CCOC(=O)CN(Cc1ccccc1)C(C(=O)NC1CCCCC1)c1ccc(OC)cc1 (stereo not drawn) | inconclusive: 14.7 µM [falling, single point]
46 | COc1cccc(Nc2sc(C(=O)c3ccc(Cl)cc3)c(N)c2C(=O)NCc2ccc(C)cc2)c1 | inconclusive: 23.3 µM [falling, single point]
47 | CC(C)CC(=O)Nc1cc(-c2ccccc2F)nn1-c1ccccc1 | inactive
48 | Cc1oc2ncn(CC(C)C)c(=O)c2c1C(=O)NCCc1ccccc1 | inconclusive: 23.3 µM [falling, single point]
49 | Cc1ccc(CNc2oc(-c3ccc(COc4ccc(C)cc4)o3)nc2C#N)cc1 | inconclusive: 26.1 µM [falling, single point]
50 | CCCc1nn2c(=O)cc(COC(=O)c3cccc(NC(=O)c4ccc(OCC)cc4)c3)nc2s1 | inactive
51 | CCOC(=O)c1c(C)[nH]c(CCC(=O)NCc2ccc(OC)cc2OC)c1C | inactive
52 | Cc1ccccc1NC(=O)c1c(C)oc2ccc(O)c(CN3CCCCCC3)c12 | inconclusive: 16.5 µM [falling, partial curve]
53 | FC(F)(F)c1cccc(Nc2nc3nonc3nc2Nc2ccc(Cl)cc2)c1 | inconclusive: 23.3 µM [falling, single point]
54 | CCOc1ccc(NC(=O)CSc2c3c(nc4ccccc24)CCCC3)cc1 | inactive
55 | O=C(NCC1CCN(Cc2cccc(Cl)c2)CC1)Nc1ccc(F)c(Cl)c1 | inactive
56 | Cc1ccc2occ(CC(=O)N(Cc3ccc(Cl)cc3)Cc3ccco3)c2c1 | inactive
57 | Cc1ccc2occ(CC(=O)Nc3ccc(S(=O)(=O)N4CCCC(C)C4)cc3)c2c1 (stereo not drawn) | inconclusive: 26.1 µM [falling, partial curve, poor fit]
58 | Cc1ccccc1Cn1nnc2c(=O)[nH]c(C3CCN(C(=O)c4ccccc4Cl)CC3)nc21 | inactive
59 | O=C(Nc1ccc(Cl)c(C(F)(F)F)c1)c1ccc2c(c1)CCN2S(=O)(=O)c1ccccc1 | inactive
60 | CCC1CCc2nc3sc(C(=O)Nc4ccc(C)cc4C)c(N)c3cc2C1 (stereo not drawn) | inconclusive: 18.5 µM [falling, partial curve]
61 | CC1CCN(C(=O)CN2c3ccc(C(C)C)cc3-c3ccccc3S2(=O)=O)CC1 | inactive
62 | COc1ccccc1CNC(=O)CCCn1c(=O)c2ccccc2n(Cc2ccc(F)cc2)c1=O | inactive
63 | CCOc1ccc(NC(=O)NCCN2CCN(c3cccc(C)c3C)CC2)cc1 | inconclusive: 9.27 µM [falling, partial curve, poor fit]

Reformatted as comma-separated lines: 2 of the compounds above.
Row,Compound,Potency
59,O=C(Nc1ccc(Cl)c(C(F)(F)F)c1)c1ccc2c(c1)CCN2S(=O)(=O)c1ccccc1,inactive
60,CCC1CCc2nc3sc(C(=O)Nc4ccc(C)cc4C)c(N)c3cc2C1 (stereo not drawn),"inconclusive: 18.5 µM [falling, partial curve]"
